Non-standard residues stand in square brackets, D forms with d. Residues, ends and D or L forms follow the SMILES beside them. *: point of attachment. Oleoyl = CCCCCCCC/C=C\CCCCCCCC(=O)*; Stearoyl = CCCCCCCCCCCCCCCCCC(=O)*; Palmitoyl = CCCCCCCCCCCCCCCC(=O)*; Nle = CCCC[CH](N)C(=O)O
Tested on: experimental amnesia caused in rats by scopolamine
Experiment: Preventive effect against experimental amnesia caused in rats by scopolamine (passive avoidance learning)
Format: in vivo, Wister male rats
Conditions: one hour before learning
Experimental: Several of the anti-prolyl endopeptidase compounds of the present invention were checked for their ability to prevent the inhibition of long-term memory fixation by scopolamine. Solutions of physiological saline (0.3 ml) that contained selected compounds of the present inventions in varying amounts ([…], 0.25 mg, 0.1 mg, 0.025 mg and 0.010 mg/kg) were administered intraperitoneally once a day to Wister male rats (100-120 g). One hour after the administration, electric shocks (1.7 mA) were applied to the rats so that they would acquire passive avoidance learning. Immediately thereafter, scopolamine was administered intraperitoneally to each rat in an amount of 3 mg per kg of body weight.
The result of the test was assessed both 24 hours and 48 hours after the administration of scopolamine. The number of amnesic rats and of sound rats was counted for each of the control group (rats to which the test compounds had not been administered but to which only scopolamine and physiological saline had been administered intraperitoneally and the treated group (rats to which both the test compound and scopolamine had been administered). The results are shown in Table 3.

Row | SMILES | Learning: Initial avoidance time (sample 25 μg/kg i.p.) | Learning: No. of avoidance during learning (sample 25 μg/kg i.p.) | Learning: Initial avoidance time (sample 100 μg/kg i.p.) | Learning: No. of avoidance during learning (sample 100 μg/kg i.p.) | Learning: Initial avoidance time (sample 10 μg/kg i.p.) | Learning: No. of avoidance during learning (sample 10 μg/kg i.p.) | Learning: Initial avoidance time (sample 250 μg/kg i.p.) | Learning: No. of avoidance during learning (sample 250 μg/kg i.p.) | Learning: Initial avoidance time (sample 1 mg/kg i.p.) | Learning: No. of avoidance during learning (sample 1 mg/kg i.p.)
1 | CCCCCCCC/C=C\CCCCCCCC(=O)NC(CC(C)C)C(=O)NC(CC(C)C)C(=O)N1CCCC1C=O (stereo not drawn) [SUAM 1158, oleoyl-Leu-Leu-Pro-CHO] (Oleoyl-Leu-Leu-Pro-aldehyde; configuration not given here) | 1.7 s | 2.3 | 2.8 s | 3.0 | – | – | – | – | – | –
2 | CCCCCCCC/C=C\CCCCCCCC(=O)NC(CCCC)C(=O)N1CCCC1C=O (stereo not drawn) [SUAM 1166, oleoyl-norLeu-Pro-CHO] (Oleoyl-[Nle]-Pro-aldehyde; configuration not given here) | 3.7 s | 2.1 | – | – | – | – | – | – | – | –
3 | CCCCCCCCCCCCCCCC(=O)NC(CC(C)C)C(=O)N1CCCC1C=O (stereo not drawn) [SUAM 1155, palmitoyl-Leu-Pro-CHO] (Palmitoyl-Leu-Pro-aldehyde; configuration not given here) | – | – | 2.2 s | 3.0 | – | – | – | – | – | –
4 | CCCCCCCCCCCCCCCCCC(=O)NC(CC(C)C)C(=O)N1CCCC1C=O (stereo not drawn) [SUAM 1154, stearoyl-Leu-Pro-CHO] (Stearoyl-Leu-Pro-aldehyde; configuration not given here) | – | – | 4.7 s | 2.0 | – | – | – | – | – | –
5 | CCCCCCCC/C=C\CCCCCCCC(=O)N[C@@H](Cc1ccccc1)C(=O)N1CCC[C@H]1C=O [SUAM 1212, oleoyl-Phe-Pro-CHO] (Oleoyl-Phe-Pro-aldehyde) | 2.7 s | 2.4 | – | – | – | – | – | – | – | –
6 | CCCCCCCC/C=C\CCCCCCCC(=O)NC(CCSC)C(=O)N1CCCC1C=O (stereo not drawn) [SUAM 1214, oleoyl-Met-Pro-CHO] (Oleoyl-Met-Pro-aldehyde; configuration not given here) | 2.2 s | 2.0 | 1.8 s | 1.6 | 4.6 s | 1.9 | 2.1 s | 2.8 | 9.5 s | 1.6
7 | CCCCCCCC/C=C\CCCCCCCC(=O)N1CCCC1C(=O)N1CCCC1C=O (stereo not drawn) [SUAM 1215, Oleoyl-Pro-Pro-CHO] (Oleoyl-Pro-Pro-aldehyde; configuration not given here) | 3.2 s | 1.8 | – | – | 2.2 s | 2.4 | – | – | – | –
8 | CCCCCCCC/C=C\CCCCCCCC(=O)NC(C(=O)N1CCCC1C=O)C(C)C (stereo not drawn) [SUAM 1156, oleoyl-Val-Pro-CHO] (Oleoyl-Val-Pro-aldehyde; configuration not given here) | – | – | 1.8 s | 1.6 | – | – | 2.1 s | 2.8 | 3.5 s | 2.8
9 | CCCCCCCC/C=C\CCCCCCCC(=O)NC(CC(C)C)C(=O)N1CCCC1C=O (stereo not drawn) [SUAM 1140, Oleoyl-Leu-Pro-CHO] (Oleoyl-Leu-Pro-aldehyde; configuration not given here) | 2.2 s | 2.0 | 3.1 s | 1.8 | 4.7 s | 2.0 | 1.7 s | 2.4 | 9.4 s | 1.6
